{
  "source": "patent US20250304649A1",
  "about": "“SCN1B MIMETIC PEPTIDES AND USES THEREOF” (Virginia Tech Intellectual Properties, Inc., priority 2022, published 2025)",
  "system": "1610β1 cells (β1/SCN1B-mediated cell adhesion)",
  "test": "Electric cell-substrate impedance sensing (ECIS) of cell adhesion in 1610β1 monolayers",
  "format": "cell-based, Chinese hamster",
  "settings": "10 μM monomer; after treatment",
  "excerpt": "FIGS. 3A-3E show βadp1 binding and identification of βadp1 derived smaller peptide fragments with similar function. […] Positive and negatively charged moieties on the adhesion surface of the β1 Ig loop are shown in red and blue (as represented in greyscale), respectively. […] Peptides towards the carboxyl terminus of βadp1, especially those incorporating hydrophobic leucine residues, show the most adhesion reducing activity. Based on the ECIS time course data, and predictions from molecular modeling of likely binding in the hydrophobic pocket β1/SCN1B Ig domain binding surface, the sequence LQLEED (SEQ ID NO: 4) was selected as a short peptide candidate drug molecule.\nIn this Example to evaluate the long term effects (effects after more than 2 hours post treatment) of βadp1 and derivatives on β1 cell adhesion, electric cell-substrate impedance sensing (ECIS) was employed. ECIS measures the impedance of electric current. 4000 Hz is the recommended frequency for measuring changes in impedance between cells, assaying intercellular adhesion levels, as mediated by β1. […] From this, and in combination with the in silico experiments, it was determined that LQLEED (SEQ ID NO: 4) was the optimal sequence. […]",
  "note": "Some entries share one result that the patent states for a list of compounds.",
  "data": [
    {"substance": "LQLEED [short monomeric peptide towards the carboxyl terminus of βadp1]", "values": [
      {"measurement": "time of shift in the ECIS curve towards increased resistance", "value": "24 to 30", "unit": "h"}
    ]}
  ]
}
